Results on 58 compounds are retold here after PubChem BioAssay AID2685 (National Center for Advancing Translational Sciences (NCATS), 2010).

One may read the AC50 as the concentration at which the activity in the assay is half-maximal.

The structures appear in SMILES notation. Some of the results follow. Further columns of the screen follow, without active or inactive calls. Compounds called inactive in the main read-out are mostly missing here. Words in brackets tell the shape of the fitted curve; partial curves, single points and poor fits give uncertain potencies.

The assay is described as follows: qHTS Assay for Lipid Storage Modulators in Drosophila S3 Cells.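 For cell number change: cells counted by Cell Tracker Red CMTPX staining in the red channel.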 The conditions noted are these: BODIPY lipid droplet fluorescence, 18-24 h; for cell number change: measured here: cell count max response, cells fed with added oleic acid. The method in brief:
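Laser-scanning cytometry quantifies lipid droplet accumulation (500–530 nm total intensity; droplet/cell object ratio) in oleic acid-fed (400 uM added) Drosophila S3 cells treated with a concentration series. 20 uM Triacsin C defined 100% inhibition.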
(In qHTS, concentration-response curves come from the screen itself.)

Setting [1] is: measured here: cell number channel AC50, cells fed with added oleic acid.
[2] abbreviates: measured here: lipid fluorescence (Fed channel) AC50, cells fed with added oleic acid.

On to `CS(=O)Cc1cc(Oc2ccccc2)nc(-c2ccncc2)n1` (configuration not stated), for which the cell number change was 64.7%. Besides, the AC50 under setting [1] is 29.1 µM [rising, single point]. In addition, the AC50 under setting [2] was 29.1 µM [rising, single point].
Regarding `C[C@@H](O)[C@H]1O[C@]2(C)CCC[C@H]1O2`, the cell number change stood at 4.45%.
Take `O=C(O)Cc1sc(-c2ccc(Cl)cc2)nc1-c1ccccc1`: the cell number change came out at 21.6%. Also, under setting [1], the AC50 is 0.0259 µM [rising, full curve, poor fit]. Also, the AC50 under setting [2] is 29.1 µM [rising, single point].
Consider `c1ccc(Cc2nnc3sc(Nc4ccccc4)nn23)cc1`, for which the cell number change was -6.27%. Also, the AC50 under setting [2] was 6.51 µM [rising, single point].
Consider `O=C(CNC(=O)c1cccc(N2C(=O)c3ccccc3C2=O)c1)Nc1ccc(F)c(F)c1`, for which the cell number change is 21.5%. The concentration at half-maximal activity (AC50) under setting [2] is 6.51 µM [falling, single point].
As to `CC(/C=C/c1ccccc1F)=N\NC(=O)C(C)C`, the cell number change amounted to 1.49%. In addition, under setting [2], the AC50 was 8.2 µM [rising, partial curve].
For the compound `c1ccc2c(N3CCCCC3)nc(N3CCCCC3)nc2c1`, the cell number change was found to be 33.4%. Further, under setting [1], the concentration at half-maximal activity (AC50) was 29.1 µM [rising, single point]. In addition, the AC50 under setting [2] is 29.1 µM [rising, single point].
Consider `CCC(=O)n1nc(NCc2ccc(OC)c(OC)c2)nc1NCc1ccc(OC)c(OC)c1`, for which the cell number change is -20%. Moreover, the AC50 under setting [2] is 0.82 µM [rising, single point].
For the compound `CCC(C)Sc1nc2c(c(=O)[nH]c(=O)n2C)n1CC(O)COc1ccccc1C` (configuration not stated), the cell number change was -64.8%. For the same compound, the AC50 under setting [1] is 23.1 µM [falling, partial curve]. For the same compound, under setting [2], the AC50 is 29.1 µM [falling, single point].
Take `O=S(=O)(NCCc1cn2ccccc2n1)c1ccc2c(c1)CCCC2`: the cell number change was 1.35%. For the same compound, the AC50 under setting [2] is 14.6 µM [rising, single point].
Turning to `CC1CCCCC1NS(=O)(=O)c1ccc(-n2cnnn2)cc1` (configuration not stated), the cell number change is -34.8%. For the same compound, the AC50 under setting [1] was 29.1 µM [falling, single point].
As to `COc1ccc(C(=O)Nc2cc3c4c(c2)CC(=O)N4CCC3)c(OC)c1`, the cell number change is -4.73%. Further, the AC50 under setting [2] is 6.51 µM [falling, partial curve].
Turning to `CCOc1ccc(N=Nc2c(C)[nH]n(-c3ccccc3)c2=O)cc1`, the cell number change is -28.1%. The AC50 under setting [1] was 2.31 µM [falling, full curve, poor fit]. Besides, the concentration at half-maximal activity (AC50) under setting [2] was 2.06 µM [falling, full curve].
On to `c1ccc(CC2CCCNC2)cc1` (configuration not stated), for which the cell number change was -0.838%. Also, the AC50 under setting [2] is 0.92 µM [rising, full curve].
`CCCCC(O)(c1ccccc1)C(CN1CCOCC1)c1ccccc1` (configuration not stated): the cell number change is -52%. Moreover, the AC50 under setting [1] is 29.1 µM [falling, single point]. Also, the AC50 under setting [2] is 29.1 µM [falling, single point].
Take `COc1cc(C2N(c3ccc(F)cc3)C(=O)C3CCCN32)cc(OC)c1OC` (configuration not stated): the cell number change turned out to be 0.348%.
In the case of `COc1ccc(Cc2nn[nH]n2)cc1`, the cell number change is 9.19%. Besides, the AC50 under setting [2] is 0.517 µM [falling, single point].
As to `CSc1ccccc1OCc1cc(C(=O)N(C)Cc2ccc3nsnc3c2)no1`, the cell number change is -12.7%. Also, under setting [1], the AC50 is 5.17 µM [rising, partial curve]. In addition, the AC50 under setting [2] is 1.16 µM [rising, full curve, poor fit].
In the case of `CCOC(=O)c1ccc(NC(=O)Nc2c(C)n(C)n(-c3ccccc3)c2=O)cc1`, the cell number change was found to be 8.67%. Moreover, under setting [2], the AC50 was 29.1 µM [rising, partial curve, poor fit].
For the compound `Clc1ccc2c(c1)C=Nc1c(NCc3ccccc3)ncnc1O2`, the cell number change is -20.5%. In addition, under setting [2], the AC50 is 6.51 µM [rising, partial curve].
For the compound `CC1(C)N=C(SCC(=O)Nc2ccc(Cl)cc2)C(c2ccc(Cl)cc2)=N1`, the cell number change was -51.8%. Also, under setting [1], the half-maximal activity concentration (AC50) is 29.1 µM [falling, single point]. In addition, the AC50 under setting [2] was 1.03 µM [rising, full curve].
Regarding `O=C(Nc1ccc(C(=O)N2CCN(c3ccccc3F)CC2)cc1)C1=CSCCO1`, the AC50 under setting [2] was 6.51 µM [rising, single point].
Turning to `Cc1sc2ncn(CC(=O)N3CCCC(C)C3)c(=O)c2c1S(=O)(=O)N1CCCCC1` (configuration not stated), the cell number change worked out at 10.8%.
In the case of `CCc1nnc(NC(=O)c2cccs2)s1`, the cell number change is -30.2%. Moreover, under setting [1], the AC50 is 0.731 µM [falling, full curve]. Further, under setting [2], the AC50 is 9.2 µM [falling, partial curve].
On to `O=[N+]([O-])c1ccc(N2CCCCC2)cc1SCCO`, for which, under setting [1], the concentration at half-maximal activity (AC50) is 0.146 µM [falling, full curve, poor fit].
On to `CC(=O)Nc1c(S(=O)(=O)c2ccccc2)c2nc3ccccc3nc2n1Cc1ccccc1`, for which the AC50 under setting [2] was 8.2 µM [falling, partial curve, poor fit].
Consider `CCOC(=O)c1cc(C)nc(S(C)(=O)=O)c1C#N`, for which the cell number change was -68.6%. Further, the AC50 under setting [1] is 18.4 µM [falling, single point].
On to `CC(=O)CCS(=O)(=O)c1ccc(C)c(C)c1`, for which the cell number change is 5.24%. In addition, the AC50 under setting [2] was 20.6 µM [falling, single point].
Take `Cn1cc(CN(Cc2ccccn2)C[C@@H]2CCC(=O)N2)c(-c2ccccc2F)n1`: the cell number change was -17.2%. Besides, the AC50 under setting [1] is 0.00461 µM [falling, full curve, poor fit]. The AC50 under setting [2] is 0.82 µM [falling, full curve, poor fit].
For the compound `COc1ccc(OCCN2C(=O)c3ccccc3C2=O)c([N+](=O)[O-])c1`, the cell number change is -24.6%.
For `COc1ccc(C(=O)NCC(=O)OCc2ccccc2F)cc1`, the cell number change turned out to be 52%. Besides, the AC50 under setting [2] is 0.13 µM [falling, full curve, poor fit].
Regarding `COc1ccccc1CCC(=O)Nc1cccc(S(=O)(=O)N2CCCCCC2)c1`, the cell number change was determined as 33%. Also, under setting [1], the AC50 is 2.31 µM [rising, full curve]. Also, the AC50 under setting [2] was 2.31 µM [rising, partial curve].
Consider `CCOc1ccccc1NC(=S)N1CCC(NC(=O)c2ccco2)CC1`, for which the cell number change is -34.1%. The AC50 under setting [1] was 13 µM [falling, single point]. For the same compound, the AC50 under setting [2] was 29.1 µM [falling, single point].
Turning to `COC(=O)CSC1=C(C#N)C(c2ccc3c(c2)OCO3)C2=C(CCCC2=O)N1` (configuration not stated), the AC50 under setting [1] was 0.731 µM [rising, single point].
With `COc1cc(OC)cc(C(=O)Nn2cc(C(=O)Nc3ccc(F)cc3F)c3ccccc3c2=O)c1`, the cell number change worked out at 9.68%. The AC50 under setting [2] was 18.4 µM [rising, single point].
On to `O=C(NNC1=NCCC1)c1cccc(S(=O)(=O)N2CCCC2)c1`, for which the cell number change came to 4.7%. Moreover, the AC50 under setting [2] is 6.51 µM [rising, single point].
For `CNC(=S)N(CCc1c(C)[nH]c2ccc(F)cc12)Cc1ccco1`, the cell number change worked out at 1.53%. Further, the AC50 under setting [2] is 6.51 µM [rising, single point].
`COc1ccc(C2CC(c3ccccc3OC(C)=O)=NN2C(=O)/C=C/c2ccccc2)cc1` (configuration not stated): the cell number change was -40.4%. Further, under setting [1], the AC50 is 32.6 µM [falling, single point]. The half-maximal activity concentration (AC50) under setting [2] was 29.1 µM [falling, single point].
Regarding `CN(c1nc(-c2ccccc2)cs1)C1CCS(=O)(=O)C1` (configuration not stated), the cell number change is 7.8%. Moreover, the AC50 under setting [2] is 11.6 µM [rising, partial curve].
Consider `Cc1cc(C(=O)CSc2nnc(-c3cccnc3)n2-c2ccccc2)c(C)n1CC1CCCO1` (configuration not stated), for which the AC50 under setting [2] is 5.8 µM [rising, partial curve].
Regarding `O=C(C1CCN(S(=O)(=O)c2cccs2)CC1)N1CCCCCC1`, the cell number change was 7.47%. In addition, the half-maximal activity concentration (AC50) under setting [1] was 0.0058 µM [rising, full curve, poor fit]. The AC50 under setting [2] was 0.366 µM [rising, full curve, poor fit].
`CCN(C(=O)c1cc2c(=O)n3cccc(C)c3nc2s1)C1CCCCC1`: the cell number change turned out to be 17.6%.
On to `Nc1nonc1C(=O)NCCN=Cc1cc(Cc2ccccc2)cc(Br)c1O`, for which the cell number change is -53.7%. Besides, the AC50 under setting [1] was 18.4 µM [falling, single point]. The AC50 under setting [2] is 29.1 µM [falling, single point].
In the case of `COc1ccc(NC(=O)c2ccccc2Oc2ccccc2)cc1`, the cell number change is 39.8%. In addition, the AC50 under setting [2] was 29.1 µM [rising, partial curve, poor fit].
Consider `O=C1C2=C(C(c3ccccc3)=NCCN2)C(c2cccc([N+](=O)[O-])c2)N1c1ccccc1` (configuration not stated), for which the cell number change is -14.9%. The AC50 under setting [2] was 0.82 µM [falling, full curve, poor fit].
As for `Cc1ccc(C)c(NC(=O)CNS(=O)(=O)c2ccccc2)c1`, the AC50 under setting [1] was 1.16 µM [rising, partial curve] and the AC50 under setting [2] was 0.291 µM [rising, partial curve, poor fit].
Take `CCc1ccc2[nH]c(=O)c(CN(CCCN3CCOCC3)C(=O)Nc3ccccc3)cc2c1`: the cell number change is 26.5%. Besides, under setting [2], the AC50 is 9.2 µM [rising, partial curve].
For `COc1ccc(N(CCC#N)C(=O)/C(C#N)=C\c2cccs2)cc1`, the cell number change amounted to 15%.
On to `COc1ccc(Cl)cc1NC(=O)CN(C)C(=O)c1cn2ccccc2n1`, for which the cell number change is -8.65%. For the same compound, the AC50 under setting [2] was 0.411 µM [falling, full curve, poor fit].
On to `COc1cc2c(cc1OC)CN(C(=O)c1ccc(N3CCCC3)c([N+](=O)[O-])c1)CC2`, for which the cell number change turned out to be 17%. For the same compound, under setting [2], the AC50 is 3.66 µM [rising, single point].
Take `CS(=O)(=O)N(CC(=O)N1CCc2ccccc2C1)Cc1ccc(Cl)cc1`: the cell number change is 43%. Further, under setting [1], the AC50 is 16.4 µM [rising, partial curve, poor fit].
Consider `CCOC(=O)C1CCCN(S(=O)(=O)c2cc(Br)cc3c2N(C(C)=O)CC3)C1` (configuration not stated), for which the cell number change was -21%. Further, the AC50 under setting [2] was 29.1 µM [falling, single point].
As to `CCOc1ccc(NC(=O)CCN2CCN(c3ccccc3F)CC2)cc1`, the cell number change stood at 108%. For the same compound, the concentration at half-maximal activity (AC50) under setting [1] is 10.3 µM [rising, partial curve]. For the same compound, the AC50 under setting [2] was 2.31 µM [rising, partial curve].
Take `CCOC(=O)C1CCCN(CCC(=O)Nc2c(C(=O)OC)[nH]c3cc(OC)ccc23)C1` (configuration not stated): the cell number change is 0.476%.
On to `COc1cc(NC(=O)CN2C(=O)C(=O)N(CC(C)C)C2=O)cc(OC)c1`, for which the cell number change turned out to be 17.7%.
As to `CC1CCN(C(=O)CN2C(=O)COc3ccc(Cl)cc32)CC1`, the cell number change worked out at 6.41%.
`CC1CN(CCCCN2C(=O)c3ccccc3C2=O)CC(C)O1` (configuration not stated): the cell number change turned out to be 22%.
For the compound `O=c1cc(-c2c(O)c3ccccc3n(Cc3ccccc3)c2=O)[nH][nH]1`, the cell number change came to 17%. The AC50 under setting [1] was 0.651 µM [falling, full curve, poor fit].
